PubChem BioAssay AID493246 – Drosophila RNAi Screening Center | 2011

Assay: 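Identify essential fly genes by loss of cell viability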 (primary screen)
Cells: Drosophila Kc and S2R+ cells
Knock-down reagent: long dsRNA against Drosophila genes
Measurement: 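Raw, unnormalised count of remaining cells in each well; per-plate z-scores of cell number underlie the calls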
Direction: Kc cell number and S2R+ cell number: higher = more cells remaining
Active means: 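Counted as a hit if cell number falls by a z-score of at least 3 within its plate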
In all, the deposit lists about 21,000 reagents; this is a random part of those that have a named target and a result. Over the whole deposit, 429 (2%) were called active. 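Values are raw and not normalised between plates; calls rest on per-plate z-scores that were not deposited.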 A number with no mark means an inactive call. Reagents against one gene are numbered here. Names joined by + are all predicted targets of the reagent. Not given: the amount of reagent, the time to read-out.

target	dsRNA no.	Kc cell number, rep 1	Kc cell number, rep 2	S2R+ cell number, rep 1	S2R+ cell number, rep 2
CG2772	1	1.47e6	1.42e6	1.07e6	1.21e6
CG11586	1	1.55e6	1.59e6	1.26e6	1.22e6
CG14546	1	1.46e6	1.45e6	9.80e5	1.10e6
PrBP (Prenyl-binding protein)	1	1.54e6	1.57e6	1.26e6	1.40e6
Iml1 (Increased minichromosome loss 1)	1	1.36e6	1.39e6	1.09e6	1.13e6
ThrRS (Threonyl-tRNA synthetase)	1	1.35e6	1.41e6	1.11e6	1.16e6
Ubc6 (Ubiquitin conjugating enzyme 6)	1	1.72e6	1.73e6	1.16e6	1.24e6
CG5787	1	1.44e6	1.47e6	9.79e5	1.11e6
CG4462	1	1.51e6	1.60e6	1.14e6	1.22e6
Clk (Clock)	1	1.30e6	1.47e6	1.12e6	1.12e6
CG31174	1	1.47e6	1.45e6	9.87e5	1.09e6
CG8366	1	1.68e6	1.73e6	1.35e6	1.58e6
CG31522	1	1.31e6	1.42e6	1.13e6	1.34e6
ben (bendless)	1	5.06e5		8.67e5	
ben (bendless)	2	1.51e6	1.59e6	1.11e6	1.22e6
Sema2a (Semaphorin 2a)	1	1.38e6	1.43e6	1.16e6	1.23e6
Obsc (Obscurin)	1	1.36e6	1.52e6	1.08e6	1.03e6
Obsc (Obscurin)	2	1.74e6	1.82e6	1.44e6	1.52e6
Obsc (Obscurin)	3	1.47e6	1.56e6	1.22e6	1.33e6
Pgcl (Pepsinogen C-like)	1	1.57e6	1.58e6	9.99e5	1.17e6
TwdlO (TweedleO)	1	1.55e6	1.62e6	9.98e5	1.13e6
alpha-Man-Ia (alpha-Mannosidase class I a)	1	1.25e6	1.41e6	9.47e5	9.80e5
alpha-Man-Ia (alpha-Mannosidase class I a)	2	1.66e6	1.48e6	1.18e6	1.20e6
alpha-Man-Ia (alpha-Mannosidase class I a)	3	1.65e6	1.53e6	1.11e6	1.26e6
alpha-Man-Ia (alpha-Mannosidase class I a)	4	1.57e6	1.47e6	1.08e6	1.16e6
CG8534	1	1.63e6	1.89e6	1.32e6	1.41e6
sano (serrano)	1	1.33e6	1.29e6	1.14e6	1.20e6
okr (okra)	1	1.29e6	1.30e6	9.05e5	9.91e5
Taf10b + Taf10	1	1.50e6	1.55e6	1.08e6	1.21e6
CG15483	1	1.57e6	1.65e6	1.23e6	1.38e6
fj (four-jointed)	1	1.59e6	1.68e6	1.22e6	1.37e6
ND-18 (NADH dehydrogenase (ubiquinone) 18 kDa subunit)	1	1.50e6	1.51e6	8.50e5	9.43e5
rudhira	1	2.60e5 (active)		4.58e5	
CG8112	1	1.65e6	2.02e6	1.24e6	1.39e6
Sgs5 (Salivary gland secretion 5)	1	1.43e6	1.58e6	1.04e6	1.14e6
Snmp2 (Sensory neuron membrane protein 2)	1	1.54e6	1.75e6	1.21e6	1.27e6
Snmp2 (Sensory neuron membrane protein 2)	2	1.47e6	1.53e6	1.12e6	1.19e6
dpr9 (defective proboscis extension response 9)	1	1.50e6	1.56e6	1.30e6	1.36e6
dpr9 (defective proboscis extension response 9)	2	1.21e6	1.35e6	1.10e6	1.18e6
dpr9 (defective proboscis extension response 9)	3	1.30e6	1.40e6	1.10e6	1.22e6

3 entries already listed, arranged by “S2R+ cell number, rep 2”, highest first.
target	dsRNA no.	Kc cell number, rep 1	Kc cell number, rep 2	S2R+ cell number, rep 1	S2R+ cell number, rep 2
CG15483	1	1.57e6	1.65e6	1.23e6	1.38e6
fj (four-jointed)	1	1.59e6	1.68e6	1.22e6	1.37e6
Taf10b + Taf10	1	1.50e6	1.55e6	1.08e6	1.21e6
